# Results are given in words; binding and its absence hold for the method and conditions named. In cells and extracts the contact can be indirect. A result given as binding can be weak or reduced; the word gives no strength. Tags and fused reporters may be left off the sequences shown.
# Biological target: T1, 6X-His tagged Hha (hemolysin expression modulating protein), chromosomally tagged (S. Typhimurium) (UniProt Q7CR17)
# T1 sequence: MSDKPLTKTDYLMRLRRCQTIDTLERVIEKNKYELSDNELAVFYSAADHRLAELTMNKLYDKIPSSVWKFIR
# Assay: pull-down; lysates of cells with chromosomally His-tagged protein bound to Ni-NTA beads; washed with 50 mM Tris pH 8.0, 10 mM imidazole; eluted with 200 mM imidazole; 12% SDS-PAGE; blots with anti-His, re-probed with anti-TomB; wild-type lysate as control
substance,measurement,value
TomB (previously known as YbaJ),binding,binds

# Source: paper PMC5133643
